Source: PubChem BioAssay AID651640 (Broad Institute, 2012)
In all, about 350,000 compounds went through this assay and about 6,000 (1.7%) were called active. The inconclusive results got no clear call from the source; some entries with a clear call stand among them for comparison. No stated cut-off is given here; in the data, active means CPE inhibition above about 20% (passing the limit was not always enough); inconclusive means no clear call, values can overlap the other calls; tested in BHK-21 cells.

Test: protection of cells from dengue 2 killing – plate reader, single concentration, primary screen (AID 651640);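 further: 0% = median of neutral control wells and 100% = median of positive control wells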
Settings: DENV2-infected cells, cytopathic effect rescue, at 9.99 µM, hits give high values

| Compound | CPE inhibition |
| --- | --- |
| O=C(/C=C/c1cn(-c2ccccc2)nc1-c1cccnc1)NCCN1CCOCC1 | inactive: -0.996% |
| COCC#Cc1ccc2c(c1)O[C@@H](CN(C)C(=O)c1ccccc1F)[C@@H](C)CN([C@H](C)CO)S2(=O)=O | inconclusive: 34.1% |
| O=C(N/N=C/c1cc(Br)cs1)C(O)c1ccccc1 (stereo not drawn) | inconclusive: 46.4% |
| CN(C)CCCNC(=O)C[C@H]1CC[C@H]2[C@@H](COC[C@@H](O)CN2CC2CC2)O1 | inconclusive: 42.2% |
| CC1CCN(CCCNC(=O)Cn2ncc3c([nH]c4ccccc43)c2=O)CC1 | inconclusive: 23.2% |
| CC(C)(C)CN1C(=O)C(=O)NC[C@H]1Cc1ccc(O)cc1 | inconclusive: 66.9% |
| CC(=O)c1ccc(N(C(=O)c2ccco2)C(C(=O)NC2CCCC2)c2cccs2)cc1 (stereo not drawn) | inconclusive: 34.1% |
| CCCNc1nc(Cl)nc(NCc2cccnc2)n1 | inconclusive: 38.6% |
| COc1ccc(CN2C(=O)N(c3ccc(OC)cc3)C(=O)C2CC(=O)Nc2ccccc2)cc1 (stereo not drawn) | inconclusive: 27% |
| COc1cccc(NC(=O)N2CC(=O)N3[C@H](C2)[C@@H](c2ccc(C4=CCCC4)cc2)[C@@H]3CO)c1 | inconclusive: 26.8% |
| C/C=C/c1ccc2c(c1)O[C@H](CN(C)C(=O)c1ccccc1F)[C@@H](C)CN([C@@H](C)CO)S2(=O)=O | inactive: 1.99% |
| C[C@@H]1CCCCO[C@H](CN(C)C(=O)C2CCCCC2)[C@@H](C)CN([C@@H](C)CO)C(=O)c2cc(NC(=O)Nc3ccc(F)cc3)ccc2O1 | active: 47.3% |
| CCc1ccc(NC(=O)CSc2nnnn2C)cc1 | inconclusive: 23.3% |
| C[C@H]1CN([C@@H](C)CO)C(=O)Cc2cc(NS(=O)(=O)c3ccccc3)ccc2O[C@H]1CN(C)Cc1ccc(Oc2ccccc2)cc1 | inconclusive: 22.2% |
| COc1ccc(S(=O)(=O)N(C)C[C@@H]2OCCCC[C@@H](C)Oc3ccc(NC(=O)NC(C)C)cc3C(=O)N([C@@H](C)CO)C[C@H]2C)cc1 | inconclusive: 22% |
| Cc1ccc([C@@H]2CC=C(C(=O)O)[C@H](c3ccc(C(C)(C)C)cc3)N2S(=O)(=O)c2ccc(C)cc2)cc1 | inconclusive: 34.3% |
| Cc1cccc(C2CC(c3ccc(Cl)cc3)Nc3nc(N)nn32)c1 (stereo not drawn) | inconclusive: 24.2% |
| O=C(c1cccc(S(=O)(=O)N2CCOCC2)c1)N1CCCC(C(F)(F)F)C1 (stereo not drawn) | inactive: 8.18% |
| N=C(c1cccc([N+](=O)[O-])c1)N1CCCCC1 | inconclusive: 69.9% |
| CCOc1ccccc1C(=O)N(Cc1ccc(C)o1)C1CCS(=O)(=O)C1 (stereo not drawn) | inconclusive: 36.9% |
| COc1ccc(C2=NOC(C)(c3sc(-c4ccc(Cl)cc4)nc3C)C2)cc1 (stereo not drawn) | inconclusive: 24.7% |
| COc1cc(C2C(c3ccccc3)C(c3cc(OC)cc(=O)o3)C2c2ccccc2)oc(=O)c1 (stereo not drawn) | inconclusive: 21.4% |
| C[C@@H]1CN([C@@H](C)CO)C(=O)c2cccc(NS(=O)(=O)c3ccc(F)cc3)c2O[C@@H]1CN(C)Cc1ccncc1 | inactive: 5.89% |
| O=C(OCc1ccccc1)c1ccccc1O | inconclusive: 64.3% |

| Compound | CPE inhibition |
| --- | --- |
| CCOC(=O)CNS(=O)(=O)c1ccc(C)cc1 | inconclusive: 31.9% |
| C[C@@H]1CN([C@H](C)CO)S(=O)(=O)c2ccc(C#Cc3ccccc3F)cc2O[C@@H]1CN(C)C | inactive: -3.81% |
| COc1ccccc1-c1n[nH]nc1C1=CC(=O)CC(C)(C)C1 | inconclusive: 45.6% |
| NC(=O)c1ccccc1N | inconclusive: 68.4% |
| CC(C)NC(=O)Nc1ccc2c(c1)C(=O)N([C@@H](C)CO)C[C@@H](C)[C@@H](CN(C)Cc1ccc(Cl)c(Cl)c1)OCCCC[C@@H](C)O2 | inconclusive: 53.5% |
| CC(C)CC#Cc1cnc2c(c1)C(=O)N([C@@H](C)CO)C[C@@H](C)[C@@H](CN(C)Cc1ccccc1F)O2 | inconclusive: 39.3% |
| CCc1nc2c(=O)[nH]cnc2o1 | inconclusive: 64.7% |
| O=C(N/N=C/c1ccc(O)cc1O)NC12CC3CC(CC(C3)C1)C2 | active: 50.5% |
| O=[N+]([O-])c1ccc(S(=O)(=O)Nc2cccc(-c3ccc(N4CCCC4)nn3)c2)cc1 | inconclusive: 43.5% |
| CCC(=O)N1[C@@H]2c3ccc(-c4ccccc4)c(=O)n3C[C@H]1[C@H](CO)[C@H]2C(=O)N1CCCCC1 | inconclusive: 22.8% |
| C=C[C@@H](OC)[C@H](OC(=O)Nc1ccc(SC)cc1)c1ccc(OCCO)cc1 | active: 20.8% |
| O=C(NCCc1ccc(F)cc1)c1cccc(NC(=O)c2ccccc2)c1 | inactive: -3.14% |
| Cc1cc2nc(C3CCCCC3)c(Cc3ccccc3C(F)(F)F)n2c(C)c1Br | inconclusive: 67.9% |
| O=C1NC(=S)SC1=Cc1ccc(Cl)cc1 | active: 21.8% |
| CC(=O)c1ccc(S(=O)(=O)NCCC(=O)OC(C)C(=O)Nc2ccc(F)cc2)cc1 (stereo not drawn) | inconclusive: 28.2% |
| COc1ccc(/C(C)=N/Nc2cccc(C(=O)O)c2)cc1OC | inactive: 8.52% |
| COc1ccc(C(=O)N2CCN(C(=O)Cc3ccccc3)CC2)cc1 | inconclusive: 29.1% |
| CC(C)NC(=O)N1C[C@@H]2[C@H](c3ccccc31)[C@H](CO)N2C(=O)c1cccnc1 | inactive: -5.02% |
| CCc1nc2c(OCc3ccc(C(F)(F)F)cc3)cccn2c1N(C)C(=O)c1ccncc1 | inconclusive: 62.7% |
| CCCCn1c(N)c(N(CCC(C)C)C(=O)C2CCCO2)c(=O)[nH]c1=O (stereo not drawn) | inconclusive: 28.2% |
| COc1ccccc1-c1ccc2c(c1)C(C)(Cc1cc(Cl)ccc1C(F)(F)F)C(=O)N2 (stereo not drawn) | inactive: -0.988% |
| CCOC(=O)c1c(-c2ccc(C)cc2)csc1NC(=O)c1ccc(N2C(=O)CCC2=O)cc1 | inconclusive: 22% |
| CC=Cc1ccc2n(c1=O)C[C@@H]1[C@@H](CO)[C@H](C(=O)N(C)C)[C@H]2N1CC1CC1 (mixture of isomers) | inactive: -3.44% |
| CN(C)C(=O)C[C@@H]1CC[C@H]2[C@@H](COC[C@H](O)CN2CC2CC2)O1 | inconclusive: 26.5% |

Given bar-delimited: part of the list above.
Compound | CPE inhibition
CCC(=O)N1[C@@H]2c3ccc(-c4ccccc4)c(=O)n3C[C@H]1[C@H](CO)[C@H]2C(=O)N1CCCCC1 | inconclusive: 22.8%
C=C[C@@H](OC)[C@H](OC(=O)Nc1ccc(SC)cc1)c1ccc(OCCO)cc1 | active: 20.8%
O=C(NCCc1ccc(F)cc1)c1cccc(NC(=O)c2ccccc2)c1 | inactive: -3.14%
Cc1cc2nc(C3CCCCC3)c(Cc3ccccc3C(F)(F)F)n2c(C)c1Br | inconclusive: 67.9%
O=C1NC(=S)SC1=Cc1ccc(Cl)cc1 | active: 21.8%
CC(=O)c1ccc(S(=O)(=O)NCCC(=O)OC(C)C(=O)Nc2ccc(F)cc2)cc1 (stereo not drawn) | inconclusive: 28.2%
COc1ccc(/C(C)=N/Nc2cccc(C(=O)O)c2)cc1OC | inactive: 8.52%
COc1ccc(C(=O)N2CCN(C(=O)Cc3ccccc3)CC2)cc1 | inconclusive: 29.1%
CC(C)NC(=O)N1C[C@@H]2[C@H](c3ccccc31)[C@H](CO)N2C(=O)c1cccnc1 | inactive: -5.02%
CCc1nc2c(OCc3ccc(C(F)(F)F)cc3)cccn2c1N(C)C(=O)c1ccncc1 | inconclusive: 62.7%
CCCCn1c(N)c(N(CCC(C)C)C(=O)C2CCCO2)c(=O)[nH]c1=O (stereo not drawn) | inconclusive: 28.2%
COc1ccccc1-c1ccc2c(c1)C(C)(Cc1cc(Cl)ccc1C(F)(F)F)C(=O)N2 (stereo not drawn) | inactive: -0.988%
